Binding screen against folded nucleic acids

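Compounds were printed on reactive glass slides in duplicate spots, a dye-labelled oligonucleotide was laid over them, and the fluorescence left after washing was read. The data file lists only calls. An earlier report of the laboratory on the PreQ1, TPP and SAM-II riboswitches (doi:10.1038/s41467-019-09493-3) used 1 µM RNA for 2 h and required a mean Z-score above 3 (spot signal-to-noise against the whole library), a score well above that on a control array, and duplicate spots agreeing (coefficient of variation under 100); it then also set aside compounds that hit other targets, which this list keeps. The cut-offs behind this list may differ. A missing hit is not proof of no binding, and a hit is not a measured affinity.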 Key: Y = hit, N = tested without a hit. Compounds were drawn at random from those tested, without regard to their results. A target missing from an entry has no call listed here. A dash means that no call is listed here.

Targets, with sequences 5′ to 3′:
T1: PreQ1 riboswitch RNA pseudoknot, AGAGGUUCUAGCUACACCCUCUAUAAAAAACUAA. From B. subtilis. Hit rate about 0.7% of about 24,000 compounds.
T2: SAM-II riboswitch RNA pseudoknot, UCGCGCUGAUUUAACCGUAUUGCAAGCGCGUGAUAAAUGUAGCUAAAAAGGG. Hit rate about 1% of about 21,000 compounds.
T3: TPP riboswitch RNA three-way junction, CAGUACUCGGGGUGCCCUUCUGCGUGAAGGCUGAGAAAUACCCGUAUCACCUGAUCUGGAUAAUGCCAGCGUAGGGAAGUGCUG. Hit rate about 0.7% of about 24,000 compounds.

compound	T1	T2	T3
Cc1cc(C)n(CC2(Cn3cc(C4CCCNC4)nn3)CC2)n1 (stereo not drawn)	N	N	N
C=CCn1cc(CNCCNC(=O)c2ccccc2Cl)c(C)n1	N	N	N
Cn1c(=O)c2c(nc(NCCCO)n2Cc2ccc(Cl)cc2)n(C)c1=O	N	N	N
COc1cccc(Nc2nc3ccccc3n3c(C)nnc23)c1	N	N	N
COCCNCc1ccc(OCc2ccc3c(c2)n(C)c(=O)n3C)c(OC)c1	N	-	N
CCOC(=O)N1CCN(c2c(NCCCN3CCN(CC)CC3)c(=O)c2=O)CC1	N	-	N
Cc1ccc(OCC(O)CN2CCC(C)CC2)c(C)c1 (stereo not drawn)	N	N	N
Cc1nc(-c2cccnc2)ncc1-c1nc(CC(N)=O)nn1CCO	N	N	N
CCc1n[nH]c(N)c1-c1cccc(Cl)c1.Cl	N	N	N
C=C(C)Cn1c(CCNC(=O)CCC(C)O)nc2ccccc21 (stereo not drawn)	N	-	N
CN[C@@H](C)C(=O)N(Cc1ccccc1)Cc1nccs1	N	N	N
CCC(NCc1cc(O)c2cc(C)ccc2n1)c1ccnn1C (stereo not drawn)	N	N	N
Cn1nccc1C(=O)NCCN	N	N	N
Cc1cc(NCCCC(=O)N2CCOCC2)n2nc(-c3cccnc3)nc2n1	N	-	N
CCOC(=O)N1CCC2(CC1)C(C#N)=C(N)OC1=C2C(=O)CC(C)C1 (stereo not drawn)	N	N	N
Cl.Cl.Clc1ccc(CNCCCn2ccnc2)cc1	N	N	N
Cc1ccc(OCC(O)Cn2c(=N)n(CCN3CCOCC3)c3ccccc32)cc1 (stereo not drawn)	N	N	N
NCCNC(=O)c1nnc(-c2ccc3c(c2)OCO3)o1	N	N	N
CCN(CC)C(=O)CSc1nc(-c2cccc(C)c2)nc2c1Cc1c(CO)cnc(C)c1O2	N	-	N
COC(=O)c1cccc(Nc2cc(C)nc3ccccc23)c1	N	N	N
CC(=O)c1c(Nc2ccc(F)cc2)oc(C)cc1=O	N	N	N
CN(C)Cc1nnc(C2CCN(C(=O)c3nc(N)nc4c3CCCC4)CC2)n1C	N	N	N
Cc1cc2c(c(=O)n1Cc1ccc3c(c1)OCO3)C(c1ccccc1Cl)C(C#N)=C(N)O2 (stereo not drawn)	N	N	N
Cc1ccc(N2CCN(C(=O)c3cc(C)c4nc(N)sc4c3)CC2=O)cc1	N	N	N
CC1=C(C(=O)OC(C)C)C2(C(=O)Nc3ccc(Br)cc32)C(C(=O)OC(C)(C)C)=C(N)O1 (stereo not drawn)	N	N	N
CCCc1cc(CNC(=O)[C@@]23CNC[C@@H]2CN(C2CCCC2)C3)on1	N	N	N
CCc1nc2nc(C)cc(Nc3cc(Cl)ccc3C)n2n1	N	N	N
CCCC(NC1CCN(C(=O)OCC)CC1)c1nccn1C (stereo not drawn)	N	N	N
Nc1nnc(SCC(=O)N2C[C@H](O)[C@@H](N3CCCC3)C2)s1	N	N	N
Cc1ccc2cc(-c3noc(C)n3)c(NCc3cccnc3)nc2c1	N	-	N
N#Cc1ccc(-c2ccc(OCC(O)CN(Cc3ccccc3)Cc3ccccc3)cc2)cc1 (stereo not drawn)	N	N	N
Cc1ccc(Cl)cc1N1CCN(CCCNc2ncnc3c2nc2n3CCCCC2)CC1	N	-	N
COc1ccc(CNCc2c(F)cccc2F)cc1OC	N	N	N
COc1cc(OC)c(C2C(C#N)=C(N)OC3=C2C(=O)CC(C)(C)C3)cc1OC (stereo not drawn)	N	N	N
Cc1ccc(C(C)C)c(OCc2nc(-c3nonc3N)no2)c1	N	N	N
Cc1ccc(Nc2c(-c3ccccc3O)nc3ncccn23)c(C)c1	N	N	N
Cc1c(Cl)cccc1NC1OC(=O)c2ccccc21 (stereo not drawn)	N	N	N
C[N+]1(CC(O)COc2ccccc2)CCN(C(=O)c2ccc([N+](=O)[O-])cc2)CC1.[I-] (stereo not drawn)	N	N	N
CN1CCc2nc3sc(C(=O)c4ccc(F)cc4)c(N)c3cc2C1	N	N	N
Cc1nn(Cc2ccc(Cl)cc2)c(N)c1C#N	N	N	N
Nc1ccccc1S(=O)(=O)NCC(=O)O	N	-	N
CC(C)CCn1c(-c2nonc2N)nc2ccccc21	N	N	N
Nc1nc2n(c1C(=O)c1ccc(Br)cc1)CCC2	Y	N	N
Cc1nc2ccc(C(=O)NCC(CO)Cc3ccco3)cc2nc1C (stereo not drawn)	N	N	N
Cl.NCC12CC3CC(CC(O)(C3)C1)C2	N	N	N
Nc1cccc(C(=O)CC2(O)C(=O)Nc3ccccc32)c1 (stereo not drawn)	N	N	N
Cc1ccc(N2CCN(CC(O)COc3ccc([N+](=O)[O-])cc3)CC2)cc1 (stereo not drawn)	N	N	N
Cc1ccc2c(c1)c(CNc1nc(N)nc3c1CCNC3)nn2C	N	Y	Y
COc1cc2c(cc1OC)C1(CCCC1)CNC2c1cccc([N+](=O)[O-])c1 (stereo not drawn)	N	N	N
CC(C)=CC(=O)N1C[C@@H](CN(C)CCN(C)C)[C@@H](CO)C1	N	N	N
Cc1sc2nc(SCC=Cc3ccccc3)nc(N)c2c1C	N	N	N
CC(C)c1cc(NC2CCCC2)n2ncc(-c3ccccc3)c2n1	N	-	N
O=C(Nc1ccc(F)cc1)C1=C(NCCO)c2ccccc2S1(=O)=O	N	-	N
CNC(=O)c1ccc(Nc2cc(Nc3ccccc3S(=O)(=O)C(C)C)c3cc[nH]c3n2)nc1	N	N	N
CC1(C)NC(=S)C(C)(C)N1N=O	N	N	N
COC1C(=O)CCC2(CO2)C1(O)C1(C)OC1CC=C(C)C (stereo not drawn)	N	N	N
CC1=CC(C)(C)NC(=S)N1c1cccc2cc(S(=O)(=O)O)ccc12	N	N	N
c1coc(CNc2ncnc3[nH]ncc23)c1	N	N	N
CCCCCN[C@H]1CS(=O)(=O)C[C@@H]1S(=O)(=O)c1ccccc1	N	-	N
Cc1cccc(Nc2nc(N[C@@H]3CCCC[C@H]3N)ncc2C(N)=O)c1	N	N	N
O=C1CNc2cc(NS(=O)(=O)N3CCCCC3)ccc2O1	N	N	N
Nc1ccccc1-c1nn2cnnc2s1	N	N	N
CC(C)CC(NC1CCSCC1)c1cccnc1 (stereo not drawn)	N	N	N
Cn1c(CNc2c3c(nc4nncn24)CCC3)nc2ccccc21	N	-	N
CCOc1cc(CNCCc2cccc(OC)c2)ccc1OC	N	N	N
Cc1cc2c(c(=O)[nH]1)C(c1ccc(C(C)C)cc1)C(C#N)=C(N)O2 (stereo not drawn)	N	N	N

For reference, 6 entries once more:

{"compound": "Cl.Cl.Clc1ccc(CNCCCn2ccnc2)cc1", "T1": "N", "T2": "N", "T3": "N"}
{"compound": "CC(C)=CC(=O)N1C[C@@H](CN(C)CCN(C)C)[C@@H](CO)C1", "T1": "N", "T2": "N", "T3": "N"}
{"compound": "CCc1n[nH]c(N)c1-c1cccc(Cl)c1.Cl", "T1": "N", "T2": "N", "T3": "N"}
{"compound": "Cc1ccc(C(C)C)c(OCc2nc(-c3nonc3N)no2)c1", "T1": "N", "T2": "N", "T3": "N"}
{"compound": "COc1cc2c(cc1OC)C1(CCCC1)CNC2c1cccc([N+](=O)[O-])c1", "stereo": "stereo not drawn", "T1": "N", "T2": "N", "T3": "N"}
{"compound": "Cc1ccc(N2CCN(CC(O)COc3ccc([N+](=O)[O-])cc3)CC2)cc1", "stereo": "stereo not drawn", "T1": "N", "T2": "N", "T3": "N"}

Source: the ROBIN nucleic acid binder screens (doi:10.1002/anie.202211358).